{
  "source": "patent US20230381129A1",
  "about": "“PERMETRIN FOR USE IN THE TREATMENT OF DEMODEX SPP INFESTATION” (priority 2020, published 2023)",
  "test_system": "Demodex mites",
  "assay": "In vitro survival study of Demodex mites on a glass slide without a coverslip",
  "set-up": "species or system Demodex spp.",
  "protocol": "At least ten eyelashes from the upper and lower eyelids of both eyes were randomly collected from all subjects from the subsequent groups. The collected material was assessed in a UB-203i light microscope with a five-point revolver bowl and a vision track with a magnification of 4×, 10×, 20×, 40× and 100×, archiving the results with a digital camera type Toupcam TP 601300A from Touptek Photonics installed in the device.\nIn the case of the presence of Demodex mites, several dozen different chemical compounds in various concentrations with a potential demodicidal effect were used on the glass slide without the use of a coverslip. […] The in vitro test results for permethrin and fluralaner were archived using a Toupcam TP 601300A digital camera from Touptek Photonics mounted on the device.",
  "note": "At least one read-out could not be matched to a standard name with certainty. Some entries share one result that the patent states for a list of compounds.",
  "data": [
    {"compound": "CC1(C)C(C=C(Cl)Cl)C1C(=O)OCc1cccc(Oc2ccccc2)c1", "note": "(stereo not shown) [Permethrin]", "values": [
      {"measurement": "Time of Survival of Demodex mites", "setting": "concentration 0.75%", "value": 8, "unit": "min"},
      {"measurement": "Time of Survival of Demodex mites", "setting": "concentration 0.75%, listed as permethrin", "value": "less than 10 minutes"},
      {"measurement": "Time of Survival of Demodex mites", "setting": "concentration 25%", "value": 3, "unit": "min"},
      {"measurement": "Time of Survival of Demodex mites", "setting": "concentration 25%, listed as permethrin", "value": "up to 3 minutes"}
    ]}
  ]
}
